PubChem BioAssay AID1259276, Sanger Institute – 2017
Shown is one part, drawn at random, of 794 reagents tested. 24 of them (3%) were called active. 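Calls come only from the siRNA-alone arm; drug synergy scores do not affect them.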 Entries without a mark were called inactive. No viability above 1 is reported: the scale is capped. Not all columns of the deposit are shown. The record does not give: the amount of reagent, the time to read-out.

Aim: 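Kinome-wide search for kinases colon cancer cells need, and for drug partners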 (primary screen)
Cell system: human C2BBe1 colorectal cancer cells
Reagent: siRNA pool against human genes
Conditions: DMSO vehicle, or one anchor drug: BYL719 at 1 µM, cetuximab at 5 µg/ml, or trametinib at 10 nM; exposure length not stated
Measured: 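Cell viability as a fraction of non-targeting control wells, mean of replicates, also as a control-based robust z-score, plus a synergy score for each anchor drug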
Direction: viability robust z-score, siRNA alone and viability vs control, siRNA alone: higher = more viable cells after knock-down; synergy score with BYL719: higher = stronger combined killing with BYL719; synergy score with cetuximab: higher = stronger combined killing with cetuximab
Call rule: 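Called essential when knock-down alone gives a viability robust z-score below -3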
Meaning of the calls: active = essential (siRNA alone); inactive = no change (siRNA alone)

gene	viability robust z-score, siRNA alone	viability vs control, siRNA alone	synergy score with BYL719	synergy score with cetuximab
DYRK3 (GeneID 8444)	0.472	1	0.0519	0.0102
MAP3K7 (GeneID 6885)	-4.97 (active)	0.657	-0.233	-0.35
BLK (GeneID 640)	0.472	1	-0.142	-0.0115
HK3 (GeneID 3101)	0.472	1	0.0725	0.0869
PXK (GeneID 54899)	0.472	1	0.0904	-0.0115
IKBKB (GeneID 3551)	0.472	1	-0.0227	0.0978
DMPK (GeneID 1760)	0.472	1	-0.142	0.102
CSK (GeneID 1445)	0.472	1	-0.101	0.00853
MTOR (GeneID 2475)	0.472	1	-0.056	-0.0115
ALPK1 (GeneID 80216)	0.273	0.987	0.0448	0.0433
CHUK (GeneID 1147)	0.472	1	-0.0451	0.0446
NRBP1 (GeneID 29959)	0.315	0.99	0.229	-0.0213
MPP2 (GeneID 4355)	0.472	1	-0.118	-0.0115
MAP3K9 (GeneID 4293)	0.472	1	0.182	-0.0115
NEK8 (GeneID 284086)	0.472	1	0.00505	0.114
CDK15 (GeneID 65061)	0.472	1	0.0135	-0.0115
PTK2 (GeneID 5747)	-1.95	0.847	-0.0862	-0.0857
EIF2AK1 (GeneID 27102)	0.472	1	-0.142	-0.0115
MAPK8 (GeneID 5599)	-0.28	0.953	-0.0907	-0.0583
AKT2 (GeneID 208)	0.472	1	0.155	-0.0115
PLK2 (GeneID 10769)	0.472	1	-0.0499	0.0532
PRKCQ (GeneID 5588)	0.472	1	0.343	-0.0115
PSTK (GeneID 118672)	0.472	1	0.349	0.157
HIPK3 (GeneID 10114)	-0.937	0.911	0.0499	0.118
PRKAB1 (GeneID 5564)	-1.31	0.888	0.188	-0.00657
EPHB4 (GeneID 2050)	0.472	1	-0.0546	-0.0115
FGFR1 (GeneID 2260)	0.472	1	-0.142	-0.0115
MAP2K5 (GeneID 5607)	0.472	1	-0.142	-0.0115
TCF12 (GeneID 6938)	0.472	1	-0.0388	-0.0115
NRAS (GeneID 4893)	0.472	1	-0.142	-0.0115
PRKD3 (GeneID 23683)	0.472	1	0.124	0.641
CDK19 (GeneID 23097)	0.3	0.989	-0.0275	0.0813
SBK1 (GeneID 388228)	0.472	1	-0.0636	-0.0115
VRK1 (GeneID 7443)	0.472	1	-0.0605	0.277
SGK2 (GeneID 10110)	0.472	1	-0.142	0.132
UCK2 (GeneID 7371)	0.273	0.987	-0.153	-0.0238
TTBK1 (GeneID 84630)	-3.59 (active)	0.744	-0.225	-0.0196
NEK11 (GeneID 79858)	-1.55	0.873	-0.145	0.0176
GK (GeneID 2710)	0.472	1	-0.0818	-0.0115
FN3K (GeneID 64122)	-2.15	0.835	0.0511	-0.0597
NEK5 (GeneID 341676)	0.472	1	-0.142	-0.0115
KCNH8 (GeneID 131096)	-3.38 (active)	0.757	-0.222	-0.252
MAPK13 (GeneID 5603)	0.472	1	-0.142	-0.0115
PMVK (GeneID 10654)	-3.79 (active)	0.731	-0.0653	-0.0406
PIP4K2A (GeneID 5305)	0.472	1	-0.142	-0.0115
PKN3 (GeneID 29941)	0.472	1	0.0374	0.0924
GRK3 (GeneID 157)	-0.706	0.926	-0.202	-0.0849
NME3 (GeneID 4832)	0.472	1	-0.0374	-0.0115
KSR2 (GeneID 283455)	0.472	1	-0.0511	0.0978
PIK3C2G (GeneID 5288)	0.472	1	0.153	-0.0115

Reagents above with an active call:
gene	viability robust z-score, siRNA alone	viability vs control, siRNA alone	synergy score with BYL719	synergy score with cetuximab
MAP3K7 (GeneID 6885)	-4.97 (active)	0.657	-0.233	-0.35
TTBK1 (GeneID 84630)	-3.59 (active)	0.744	-0.225	-0.0196
KCNH8 (GeneID 131096)	-3.38 (active)	0.757	-0.222	-0.252
PMVK (GeneID 10654)	-3.79 (active)	0.731	-0.0653	-0.0406
